PubChem BioAssay AID602196, INSERM – 2012

- Test: 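Knock-downs that protect lung cancer cells from cisplatin or sensitise them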
- System: human A549 lung cancer cells
- Reagent: siRNA pair against human genes
- Duration: 48 h transfection before cisplatin; time from cisplatin to read-out not stated
- Challenge: cisplatin at a dose killing half of control-siRNA cells; exact dose and duration not given
- Measurement: 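Cisplatin cell death as a shift from the 50% death seen with control siRNA; siRNAs toxic or growth-blocking alone scored 0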
- Direction: two-siRNA summed score (-2 to +2): higher = both siRNAs protect from cisplatin killing; -2 means both sensitise; mean protection from cisplatin (shift in death) and protection from cisplatin (shift in death), siRNA C and protection from cisplatin (shift in death), siRNA D: higher = protection from cisplatin killing
- Hit rule: 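siRNAs harmful alone (LDH or WST-1) get 0; others get +1 for less and -1 for more cisplatin killing; genes are active when the two siRNAs give the same sign, summing to ±2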
- Meaning of the calls: active = both siRNAs shift cisplatin killing the same way; inactive = no consistent shift, or siRNA harmful alone
In all, the deposit lists about 23,000 reagents; this is an unselected part. In the full data, 455 (2%) were called active. 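Active includes both protection and sensitisation; some change values fall well beyond the stated -50 to +50 range.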 Entries without a mark were called inactive. Not stated in the record: the amount of reagent.

The first 2 records, ahead of the listing:
gene symbol | two-siRNA summed score (-2 to +2) | mean protection from cisplatin (shift in death) (%) | protection from cisplatin (shift in death), siRNA C (%) | protection from cisplatin (shift in death), siRNA D (%)
MPZL1 | 0 | -2.8 | 0 | -5.6
CCDC121 | 0 | -6 | -9.1 | -2.9

The list itself, repeating the preview:
gene symbol | two-siRNA summed score (-2 to +2) | mean protection from cisplatin (shift in death) (%) | protection from cisplatin (shift in death), siRNA C (%) | protection from cisplatin (shift in death), siRNA D (%)
MPZL1 | 0 | -2.8 | 0 | -5.6
CCDC121 | 0 | -6 | -9.1 | -2.9
RNF44 | 1 | 10.8 | 12.3 | 9.3
CDPF1 | -1 | 9.2 | 32.5 | -14.1
DSCR4 | 0 | 6.2 | 5.1 | 7.3
GAS2 | -1 | -11.5 | -8.9 | -14
ABCF2 | -1 | -7.5 | 3.8 | -18.8
ATXN7L3 | -1 | -4.1 | -16.6 | 8.3
PRSS58 | 1 | 15.6 | 29.2 | 2.1
WDR89 | 0 | 7.6 | 12.5 | 2.8
PDX1 | 0 | 3.4 | 6.1 | 0.8
ENDOU | 0 | 0.3 | -6 | 6.6
CACUL1 | 0 | 6.3 | -2.7 | 15.4
CPD | -1 | -8.5 | 11.8 | -28.7
AGPS | -1 | -8.3 | 2.4 | -19.1
DKFZp566H0824 | 0 | 2.3 | 6 | -1.5
LOC389127 | 1 | 12.7 | 7.6 | 17.8
LOC440367 | 0 | 13.6 | 11.4 | 15.8
PRTFDC1 | 0 | -2.6 | -0.6 | -4.6
NIPSNAP2 | 0 | 8.4 | 13.7 | 3.1
TSPAN12 | 0 | -2.1 | -10.3 | 6.1
TUBB4A | 0 | 9.3 | 15.7 | 2.9
SIVA1 | -1 | -13.8 | -3.1 | -24.6
OR51G1 | 0 | 8.7 | -0.2 | 17.7
HERC1 | 0 | -1.4 | 3 | -5.8
PACS1 | 0 | 34.8 | 53.7 | 15.9
RFX2 | 0 | -12.8 | -10 | -15.7
TRPC4AP | 0 | -17.2 | -22.6 | -11.7
LOC440984 | 1 | 16.4 | 23.3 | 9.5
MAP4 | 0 | 4.9 | -0.5 | 10.4
LIN7A | 0 | -1.3 | -9.1 | 6.6
GLT6D1 | 0 | -0.3 | 7.1 | -7.7
GCHFR | -1 | -7.4 | 2.1 | -16.8
OR51T1 | 0 | 4.3 | -5.1 | 13.7
FEV | -1 | -8.2 | 5.6 | -21.9
CHRNA9 | 0 | -2.7 | 1.2 | -6.6
ARL5A | 1 | 19.2 | 24.5 | 13.9
EXOSC10 | 0 | 6 | -9.1 | 21.2
NDST2 | 0 | 4.1 | 0.2 | 8.1
ACSS2 | 0 | 17.9 | 20.4 | 15.4
SYAP1 | 0 | -9.7 | 5.9 | -25.2
EID3 | 1 | 12.2 | 4.7 | 19.7
PUS3 | 0 | 8.1 | 9 | 7.1
HENMT1 | -1 | -5.3 | -5.5 | -5.1
NUDT21 | 0 | -3.3 | -2 | -4.6
LOC442700 | 1 | 18.5 | 15.5 | 21.5
LOC346355 | 0 | 7.4 | 11.4 | 3.4
OR2C1 | 0 | 3.4 | 12.3 | -5.5
ANKRD42 | 0 | 8.6 | 8.8 | 8.5
LRRC3 | 0 | 0.2 | 1.8 | -1.4
RUFY1 | 0 | -8 | 3.3 | -19.3
TMA7 | 0 | -5.1 | -15.7 | 5.5
PTPRN | 0 | 10.1 | 10 | 10.3
FADS6 | 0 | 3.4 | 4.4 | 2.5
LOC91664 | 1 | 20.7 | 28.1 | 13.3
TAAR1 | 0 | -2.9 | -2.5 | -3.3
INCA1 | 0 | 3.6 | 3.8 | 3.3
ITPRID2 | 0 | 6.9 | 3.8 | 9.9
CCDC82 | -1 | -8.6 | -2.9 | -14.2
LOC441879 | 1 | 9.6 | 11.2 | 7.9
GLIS1 | 0 | -4 | -3.4 | -4.6
EMP2 | 1 | 12.9 | 8.5 | 17.3
CD320 | 0 | 12.9 | 16.2 | 9.5
MFRP | -1 | -10.6 | 0.5 | -21.6
PSD2 | 1 | 16.6 | 11.6 | 21.7
FLOT2 | -2 (active) | -17 | -13.8 | -20.2
MATN1 | 0 | 2.1 | -0.4 | 4.6
LOC401410 (retired record) | 0 | 5.7 | 0.9 | 10.5
KCNA4 | 0 | 1.5 | -0.4 | 3.4
TGFBR1 | 1 | 11.2 | 18 | 4.3
FTMT | 0 | -3.1 | 0.2 | -6.4
ZBTB12 | 1 | 10.5 | 8.9 | 12.2
PIWIL3 | 0 | 3.9 | 8.5 | -0.7
